Reference: PubChem BioAssay AID1439 (NMMLSC, 2008)
Among all 220,000 compounds or so, about 770 (0.35%) were called active. The shares of active, inactive and inconclusive entries below differ from those in the screen. No stated cut-off is given here; in the data, active means binding response below about 49% or above about 150%; inconclusive means no clear call, values can overlap the other calls; inactive means in between.

Chains of the proteins cited; added tags and fusions are not shown.
UniProt P09471, whole entry, looked up: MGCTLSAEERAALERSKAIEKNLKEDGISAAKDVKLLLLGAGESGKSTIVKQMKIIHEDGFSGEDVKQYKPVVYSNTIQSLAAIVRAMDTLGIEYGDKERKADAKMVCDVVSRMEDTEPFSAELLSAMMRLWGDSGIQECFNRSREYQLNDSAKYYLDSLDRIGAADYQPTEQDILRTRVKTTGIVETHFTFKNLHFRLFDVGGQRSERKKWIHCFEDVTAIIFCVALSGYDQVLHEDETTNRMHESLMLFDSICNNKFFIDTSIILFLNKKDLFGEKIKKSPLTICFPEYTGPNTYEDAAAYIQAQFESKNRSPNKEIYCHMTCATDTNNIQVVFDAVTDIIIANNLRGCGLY

What follows are molecules tested against Guanine nucleotide-binding protein G(o) subunit alpha (Homo sapiens) (UniProt P09471) (assay: RGS7-Galphao binding modulators, primary screen, biochemical, multiplexed bead flow cytometry (AID 1439;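 further: fluorescent Galphao held in activated GDP-AlF4 state binding bead-coupled RGS7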)). Settings: at 10 µM, actives lie on both sides.
In the case of COc1ccc(C[C@H]2CN3C(=NC[C@@H]3Cc3ccc(O)cc3)N2C[C@H](C)NC(=O)CCC2CCCCC2)cc1, the binding response (% of control) is reported as inconclusive: 101%.
In the case of O=C(Nc1ccccc1Cl)Oc1ccc2ccccc2c1, the binding response (% of control) is reported as inconclusive: 145%.
For CC(c1ccccc1C(O)(c1ccccc1)c1ccccc1)N(C)C (configuration not stated), the binding response (% of control) was active: 7.01%.
Cc1ccc(Nc2nc(N)nc(CN3CCN(Cc4ccccc4)CC3)n2)cc1Cl was tested, and the binding response (% of control) was inconclusive: 103%.
In the case of Cc1sc(NC(=O)CN2CCOCC2)c(C#N)c1C, the binding response (% of control) is reported as inconclusive: 115%.
CCC(=O)Nc1ccc(NC(=O)CSc2nnnn2-c2ccc3c(c2)OCCO3)cc1 was tested, and the binding response (% of control) was inconclusive: 110%.
With Cc1cccc2c(=O)cc(C(F)(F)F)[nH]c12 the binding response (% of control) was inconclusive: -75.2%.
For Cc1cc(C)n2nnnc2n1, the binding response (% of control) was inconclusive: 99.4%.
With Cc1ccc(S(=O)(=O)N2CCCCC2)cc1NC(=O)COC(=O)C1=COCCO1 the binding response (% of control) was inactive: 99.3%.
With CN(CC(=O)Nc1ccc(S(=O)(=O)N2CCCC2)cc1)Cc1c(F)cccc1Cl the binding response (% of control) was inconclusive: 95.8%.
With NC(=NCCc1c[nH]c2ccccc12)NC(=O)c1ccc(F)cc1 the binding response (% of control) was inconclusive: 108%.
COc1ccc(-n2nc(C)c3sc(C)nc3c2=O)cc1 was tested, and the binding response (% of control) was inconclusive: 109%.
With Cc1nonc1C1CCCN1C(=O)c1cc(COc2ccc(F)cc2Cl)on1 (configuration not stated) the binding response (% of control) was inactive: 98.1%.
In the case of CCCCN(C(=O)CCC(=O)Nc1cc(C)on1)C(C(=O)NC(C)(C)CC)c1cccc(OC)c1OC (configuration not stated), the binding response (% of control) is reported as inconclusive: 116%.
Cn1cc(C(=O)N/N=C/c2cc(Br)cs2)c2ccccc21 was tested, and the binding response (% of control) was inconclusive: 103%.
COC(=O)c1cnn(-c2ccc(Cl)cc2)c1/C=N/NC(N)=S was tested, and the binding response (% of control) was inconclusive: 43.7%.
In the case of CC1Cc2cc(/C=C3/SC(=S)N(C)C3=O)ccc2O1 (configuration not stated), the binding response (% of control) is reported as inconclusive: 196%.
In the case of CCOC(=O)c1ccc(NC(=O)c2nc[nH]c2C(=O)N2CCN(c3ccccc3)CC2)cc1, the binding response (% of control) is reported as inconclusive: 94%.
In the case of O=C(O)c1cccc(S(=O)(=O)N(Cc2ccccc2)c2ccccc2)c1, the binding response (% of control) is reported as inconclusive: 103%.
In the case of CCN(CC)c1ccc2cc(-c3nnc(-c4ccccc4)o3)c(=O)oc2c1, the binding response (% of control) is reported as inactive: 98.6%.
For Cc1cc(=O)c2ccccc2n1Cc1ccccc1, the binding response (% of control) was inconclusive: 116%.
CCOC(=O)/C(C#N)=C(\O)c1ccc(NC(=O)c2ccc([N+](=O)[O-])cc2)cc1 was tested, and the binding response (% of control) was inconclusive: 236%.
COc1ccc(Oc2ccc(C(F)(F)F)cc2NC(=O)c2ccc(C)cc2)cc1 was tested, and the binding response (% of control) was inconclusive: 111%.
For O=c1ccn(CCc2c[nH]c3ccccc23)c2c1CCCC2, the binding response (% of control) was inactive: 103%.
With CCOC(=O)c1c(NC(=O)CSc2nnc(C)c(=O)[nH]2)sc(C)c1-c1ccc(C)cc1 the binding response (% of control) was inconclusive: 124%.
In the case of COc1ccc(/C=C/C(=O)O)cc1S(=O)(=O)NCc1ccccc1, the binding response (% of control) is reported as inconclusive: 110%.
With N#C/C(=C\Nc1ccc(F)c(Cl)c1)C(=O)C1CC1 the binding response (% of control) was inconclusive: 111%.
In the case of CC1CCCCN1C(=O)Cn1cc(/C=C2/C(=O)Nc3ccccc32)c2ccccc21 (configuration not stated), the binding response (% of control) is reported as active: 44%.
CCCCNC(=O)c1onc(CSc2cccc3ccccc23)c1C(=O)O was tested, and the binding response (% of control) was inactive: 95.2%.
With Cc1ccnn1CCC(=O)N1CCCC(CCC(=O)N2CCN(c3ccccn3)CC2)C1 (configuration not stated) the binding response (% of control) was inactive: 101%.
In the case of COCCNC(=O)[C@H](CSCc1ccccc1)N1Cc2ccccc2C1=O, the binding response (% of control) is reported as inconclusive: 97.3%.
With CC(C(=O)N1CCN(Cc2ccccc2)CC1)c1ccc([N+](=O)[O-])cc1 (configuration not stated) the binding response (% of control) was inconclusive: 105%.
For N#Cc1ccc(-c2csc(-c3ccno3)n2)cc1, the binding response (% of control) was inconclusive: 88.3%.
For Cn1nc(C(=O)NCCc2ccc(S(N)(=O)=O)cc2)c2ccccc2c1=O, the binding response (% of control) was inconclusive: 114%.
In the case of N#Cc1c(Cl)cccc1N1CCC(C(N)=O)CC1, the binding response (% of control) is reported as inconclusive: 178%.
For O=C(CCNc1ccc(F)cc1)c1ccco1, the binding response (% of control) was inactive: 105%.
In the case of CCCSc1nnc2c(n1)OC(c1cccn1C)N(C(C)=O)c1ccccc1-2 (configuration not stated), the binding response (% of control) is reported as inactive: 103%.
FC(F)(F)Sc1ccc(NC(=S)NCc2ccccc2)cc1 was tested, and the binding response (% of control) was inconclusive: 168%.
For CCCN(CCC)c1ccc(/C=C/c2ccc3cc(OCC)ccc3n2)cc1, the binding response (% of control) was inconclusive: -8.23%.
With BrC(=C\c1ccccc1)/C=N/N1CCN(c2ccccc2)CC1 the binding response (% of control) was inactive: 97.2%.
For Cc1ccc(NC(=S)N(CCN(C)C)C(C)c2ccco2)c(C)c1 (configuration not stated), the binding response (% of control) was inconclusive: 92.3%.
With O=C(c1ccc(F)cc1)c1ccc(CN2C(=O)c3ccccc3C2=O)o1 the binding response (% of control) was inconclusive: 92.2%.
In the case of CC1=C(C(=O)Nc2ccc(C)cc2)C(c2cccs2)NC(=S)N1 (configuration not stated), the binding response (% of control) is reported as active: 46.1%.
In the case of Cc1ccc(CN2CCN(Cc3ccccc3-c3ccco3)CC2CCO)o1 (configuration not stated), the binding response (% of control) is reported as inactive: 90.6%.
In the case of O=C(/C=C/c1ccc2c(c1)OCO2)NCc1ccncc1, the binding response (% of control) is reported as inconclusive: 77.6%.
In the case of Cc1noc(C)c1COc1cccc(C(=O)OC(C)C(=O)Nc2c(C)n(C)n(-c3ccccc3)c2=O)c1 (configuration not stated), the binding response (% of control) is reported as inactive: 96.2%.
In the case of Cn1c(=O)c([N+](=O)[O-])c(NCC2CCCO2)c2ccccc21 (configuration not stated), the binding response (% of control) is reported as inconclusive: 114%.
For CC(/C=N/n1c(-c2ccc(C)cc2)n[nH]c1=S)=C\c1ccco1, the binding response (% of control) was inactive: 105%.
For CC(NC(=S)Nc1ccc(OC(F)F)c(Cl)c1)C(C)(C)C (configuration not stated), the binding response (% of control) was inconclusive: 92.5%.
CCOc1ccccc1NC(=O)CSc1ccc([N+](=O)[O-])cc1 was tested, and the binding response (% of control) was inconclusive: 93.5%.
CC1=C(C(=O)NCc2ccccc2)C(c2cccs2)n2ncnc2N1 (configuration not stated) was tested, and the binding response (% of control) was inactive: 80.7%.
In the case of CN(C)/C=C/C(=O)c1ccc(F)cc1F, the binding response (% of control) is reported as inconclusive: -5.16%.
O=C(COC(=O)c1ccc(O)cc1)Nc1cccc(S(=O)(=O)N2CCCCC2)c1 was tested, and the binding response (% of control) was inconclusive: 172%.
For Nc1cc(-c2ccccc2)n2c(n1)nc1ccccc12, the binding response (% of control) was inconclusive: 79.7%.
With CCN1C(=O)C(CC(=O)Nc2ccc(OC)cc2)N(CCN2CCOCC2)C1=S (configuration not stated) the binding response (% of control) was inconclusive: 93.4%.
With Cc1ccc(-n2cccn2)c(CN2CCC(CO)(CCc3ccccc3)CC2)c1 the binding response (% of control) was inconclusive: 98.4%.
Cc1ccc2[nH]c(=O)c(COC(=O)c3cccs3)cc2c1 was tested, and the binding response (% of control) was inactive: 102%.
In the case of CO/N=C(/C)CCS(=O)(=O)c1ccccc1, the binding response (% of control) is reported as inactive: 97.5%.
C=CCn1c(SCC(N)=O)nc2nc3c(cc2c1=O)COC(C)(C)C3 was tested, and the binding response (% of control) was inconclusive: 75.3%.
In the case of C/C(=N\S(=O)(=O)c1ccc(C)cc1)N(C)C, the binding response (% of control) is reported as inconclusive: 137%.
COC(=O)Nc1nnc(-c2ccccc2OC)s1 was tested, and the binding response (% of control) was inconclusive: 87.2%.
In the case of CC1c2ccsc2CCN1S(=O)(=O)c1ccccc1 (configuration not stated), the binding response (% of control) is reported as inconclusive: 63.4%.
With CC(C)(C)NC(=S)NCc1ccncc1 the binding response (% of control) was inactive: 103%.
For COc1ccc(C)cc1Nc1n[n+](C)c(-c2ccc(C(=O)O)cc2)s1, the binding response (% of control) was inconclusive: 96.9%.
For CC1(C)CC(=O)c2cnc(NC(=O)CSC(=S)N3CCCCC3)nc2C1, the binding response (% of control) was inconclusive: 105%.
CCn1c(-c2sc(-c3ccccc3)nc2C)n[nH]c1=S was tested, and the binding response (% of control) was inconclusive: 102%.
In the case of COc1ccccc1OCCC(=O)Nc1nc(C)cs1, the binding response (% of control) is reported as inconclusive: 125%.
With Cc1cc(C)n(CCC(=O)N=Nc2c(O)[nH]c3ccccc23)n1 the binding response (% of control) was inconclusive: 116%.
Nc1nc2ccc([N+](=O)[O-])cc2[nH]1 was tested, and the binding response (% of control) was inconclusive: 67.7%.
In the case of O=C(N/N=C/c1ccc(Cl)cc1)c1n[nH]c2c1CCCC2, the binding response (% of control) is reported as inconclusive: 75.8%.
CC(C(=O)NCC1CCCO1)N1C(=O)C2C3CC(C(Br)C3Br)C2C1=O (configuration not stated) was tested, and the binding response (% of control) was inconclusive: 113%.
In the case of NC(=O)CSc1nnc(-c2ccccn2)n1Cc1ccco1, the binding response (% of control) is reported as inconclusive: 96.6%.
With CC(NS(=O)(=O)/C=C/c1ccccc1)c1ccccc1 (configuration not stated) the binding response (% of control) was inconclusive: 96.6%.
COc1ccc(N2CCN(C(=O)COc3ncnc4ccccc34)CC2)cc1 was tested, and the binding response (% of control) was inconclusive: 106%.
With CCCNC(=O)Cc1c(C)oc2ccccc12 the binding response (% of control) was inconclusive: 88.1%.
COc1ccc(CCNc2ccc(C(CC(N)=O)NC(=O)c3ccc(Br)cc3)cc2[N+](=O)[O-])cc1 (configuration not stated) was tested, and the binding response (% of control) was inconclusive: 103%.
For O=C(/C=C/c1ccc(F)cc1)NC(=S)N1CCN(c2ccccn2)CC1, the binding response (% of control) was inconclusive: 159%.
For COc1ccccc1NC(=O)c1cc(Cl)nnc1Cl, the binding response (% of control) was inconclusive: 94.1%.
For CCc1ccccc1Cn1c(=O)oc2cccnc21, the binding response (% of control) was inconclusive: 97.5%.
With CC(NC(=O)COC(=O)/C=C/c1ccco1)c1ccccc1 (configuration not stated) the binding response (% of control) was inconclusive: 83.1%.
In the case of Nc1cc(S(=O)(=O)O)cc([N+](=O)[O-])c1O, the binding response (% of control) is reported as inconclusive: 123%.
In the case of O=C(NC(=O)c1ccccc1)Nc1ccc(-c2cnco2)cc1, the binding response (% of control) is reported as inconclusive: 144%.
In the case of COc1ccc(NC(=O)Nc2ccc(F)cc2)c(C)c1, the binding response (% of control) is reported as inconclusive: 131%.
In the case of COC(=O)[C@@H]1CC[C@H](C)[C@@H](c2ccc(C)cc2)N1C(=O)c1ccc(/C=N/OC[C@@H](O)[C@H]2O[C@@H]3OC(C)(C)O[C@@H]3[C@H]2O)cc1, the binding response (% of control) is reported as inactive: 104%.
With COC(=O)CCCC1=CC2=C(c3ccccc3)C(=O)C(C)(OC(=O)C3CCCC3)C(=O)C2=CN1c1ccc(OC)cc1 (configuration not stated) the binding response (% of control) was inconclusive: 109%.
In the case of O=C(N/N=C1\CCc2ccccc21)c1ccccc1Cl, the binding response (% of control) is reported as inactive: 98.2%.
With O=C(Nc1nccs1)C(F)(F)C(F)(F)C(F)(F)C(=O)Nc1nccs1 the binding response (% of control) was inconclusive: 108%.
With O=C(Cc1ccccc1)Nc1cccc(C(=O)O)c1O the binding response (% of control) was inactive: 105%.
With COc1ccc(N=Nc2cc(C)c(O)c(CN3CCCCC3)c2)cc1 the binding response (% of control) was inconclusive: 127%.
In the case of COCCn1c(C)cc(C(=O)COC(=O)/C=C/c2cccc(OC)c2)c1C, the binding response (% of control) is reported as inactive: 92.8%.
With Cc1cc2nnc(SCC(=O)N(C)C3CCS(=O)(=O)C3)n2c2ccccc12 (configuration not stated) the binding response (% of control) was inconclusive: 116%.
In the case of O=C(Nc1ccc(F)cc1)Nc1ccccc1F, the binding response (% of control) is reported as inconclusive: 114%.
